The list shows a part of the results.
Legend:
Experiment in all cases: glycan array binding signal (z-score within array); higher = stronger binding
Conditions in all cases: glycan notation: IUPAC condensed, linker removed
[1] = target: Fuc(a1-2)Gal
How it was run: (§1)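 Negative Z-scores can be read as non-binding. The Z-score is calculated within each array and then averaged across arrays of one protein sequence at different concentrations or buffers and across linkers. Arrays, 3228 in all, were curated from the Consortium for Functional Glycomics database and kept only where the protein sequence was available.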

[2] = target: Fuc(a1-2)Gal(b1-3)GalNAc
How it was run: as §1

[3] = target: Fuc(a1-2)Gal(b1-3)GalNAc(a1-3)[Fuc(a1-2)]Gal(b1-4)Glc
How it was run: as §1

[4] = target: Fuc(a1-2)Gal(b1-3)GalNAc(a1-3)[Fuc(a1-2)]Gal(b1-4)GlcNAc
How it was run: as §1

[5] = target: Fuc(a1-2)Gal(b1-3)GalNAc(b1-3)Gal
How it was run: as §1

[6] = target: Fuc(a1-2)Gal(b1-3)GalNAc(b1-3)Gal(a1-4)Gal(b1-4)Glc
How it was run: as §1

[7] = target: Fuc(a1-2)Gal(b1-3)GalNAc(b1-4)[Neu5Ac(a2-3)]Gal(b1-4)Glc
How it was run: as §1

[8] = target: Fuc(a1-2)Gal(b1-3)GlcNAc
How it was run: as §1

[9] = target: Fuc(a1-2)Gal(b1-3)GlcNAc(b1-2)Man(a1-3)[Fuc(a1-2)Gal(b1-3)GlcNAc(b1-2)Man(a1-6)]Man(b1-4)GlcNAc(b1-4)GlcNAc
How it was run: as §1

[10] = target: Fuc(a1-2)Gal(b1-3)GlcNAc(b1-3)Gal(b1-4)Glc
How it was run: as §1

[11] = target: Fuc(a1-2)Gal(b1-3)GlcNAc(b1-3)[Fuc(a1-3)[Gal(b1-4)]GlcNAc(b1-6)]Gal(b1-4)Glc
How it was run: as §1

[12] = target: Fuc(a1-2)Gal(b1-3)[Fuc(a1-4)]GlcNAc
How it was run: as §1

[13] = target: Fuc(a1-2)Gal(b1-3)[Fuc(a1-4)]GlcNAc(b1-2)Man(a1-3)[Fuc(a1-2)Gal(b1-3)[Fuc(a1-4)]GlcNAc(b1-2)Man(a1-6)]Man(b1-4)GlcNAc(b1-4)GlcNAc
How it was run: as §1

[14] = target: Fuc(a1-2)Gal(b1-3)[Fuc(a1-4)]GlcNAc(b1-3)[Fuc(a1-3)[Gal(b1-4)]GlcNAc(b1-6)]Gal(b1-4)Glc
How it was run: as §1

[15] = target: Fuc(a1-2)Gal(b1-3)[Fuc(a1-4)]GlcNAc(b1-3)[Gal(b1-4)GlcNAc(b1-6)]Gal(b1-4)Glc
How it was run: as §1

[16] = target: Fuc(a1-2)Gal(b1-4)Glc
How it was run: as §1

[17] = target: Fuc(a1-2)Gal(b1-4)Glc6S
How it was run: as §1

[18] = target: Fuc(a1-2)Gal(b1-4)GlcNAc
How it was run: as §1

[19] = target: Fuc(a1-2)Gal(b1-4)GlcNAc(b1-2)Man(a1-3)[Fuc(a1-2)Gal(b1-4)GlcNAc(b1-2)Man(a1-6)]Man(b1-4)GlcNAc(b1-4)GlcNAc
How it was run: as §1

[20] = target: Fuc(a1-2)Gal(b1-4)GlcNAc(b1-3)Gal(b1-4)GlcNAc
How it was run: as §1

[21] = target: Fuc(a1-2)Gal(b1-4)GlcNAc(b1-3)Gal(b1-4)GlcNAc(b1-3)Gal(b1-4)GlcNAc
How it was run: as §1

[22] = target: Fuc(a1-2)Gal(b1-4)GlcNAc(b1-3)GalNAc
How it was run: as §1

[23] = target: Fuc(a1-2)Gal(b1-4)GlcNAc6S
How it was run: as §1

[24] = target: Fuc(a1-2)Gal(b1-4)[Fuc(a1-3)]GlcNAc
How it was run: as §1

[25] = target: Fuc(a1-2)Gal(b1-4)[Fuc(a1-3)]GlcNAc(b1-2)Man(a1-3)[Fuc(a1-2)Gal(b1-4)[Fuc(a1-3)]GlcNAc(b1-2)Man(a1-6)]Man(b1-4)GlcNAc(b1-4)GlcNAc
How it was run: as §1

[26] = target: Fuc(a1-2)Gal(b1-4)[Fuc(a1-3)]GlcNAc(b1-3)Gal(b1-4)[Fuc(a1-3)]GlcNAc
How it was run: as §1

[27] = target: Fuc(a1-2)Gal(b1-4)[Fuc(a1-3)]GlcNAc(b1-3)Gal(b1-4)[Fuc(a1-3)]GlcNAc(b1-3)Gal(b1-4)[Fuc(a1-3)]GlcNAc
How it was run: as §1

[28] = target: Fuc(a1-2)Gal6S(b1-4)Glc
How it was run: as §1

[29] = target: Fuc(a1-2)Gal6S(b1-4)Glc6S
How it was run: as §1

[30] = target: Fuc(a1-2)Gal6S(b1-4)GlcNAc
How it was run: as §1

[31] = target: Fuc(a1-2)[Gal(a1-3)]Gal
How it was run: as §1

[32] = target: Fuc(a1-2)[Gal(a1-3)]Gal(b1-3)GlcNAc
How it was run: as §1

[33] = target: Fuc(a1-2)[Gal(a1-3)]Gal(b1-3)GlcNAc(b1-2)Man(a1-3)[Fuc(a1-2)[Gal(a1-3)]Gal(b1-3)GlcNAc(b1-2)Man(a1-6)]Man(b1-4)GlcNAc(b1-4)GlcNAc
How it was run: as §1

[34] = target: Fuc(a1-2)[Gal(a1-3)]Gal(b1-4)Glc
How it was run: as §1

[35] = target: Fuc(a1-2)[Gal(a1-3)]Gal(b1-4)GlcNAc
How it was run: as §1

[36] = target: Fuc(a1-2)[Gal(a1-3)]Gal(b1-4)GlcNAc(b1-2)Man(a1-3)[Fuc(a1-2)[Gal(a1-3)]Gal(b1-4)GlcNAc(b1-2)Man(a1-6)]Man(b1-4)GlcNAc(b1-4)GlcNAc
How it was run: as §1

[37] = target: Fuc(a1-2)[Gal(a1-3)]Gal(b1-4)[Fuc(a1-3)]GlcNAc
How it was run: as §1

[38] = target: Fuc(a1-2)[Gal(a1-4)]Gal(b1-4)GlcNAc
How it was run: as §1

[39] = target: Fuc(a1-2)[GalNAc(a1-3)]Gal
How it was run: as §1

[40] = target: Fuc(a1-2)[GalNAc(a1-3)]Gal(b1-3)GalNAc(a1-3)[Fuc(a1-2)]Gal(b1-4)GlcNAc
How it was run: as §1

[41] = target: Fuc(a1-2)[GalNAc(a1-3)]Gal(b1-3)GlcNAc
How it was run: as §1

[42] = target: Fuc(a1-2)[GalNAc(a1-3)]Gal(b1-3)GlcNAc(b1-2)Man(a1-3)[Fuc(a1-2)[GalNAc(a1-3)]Gal(b1-3)GlcNAc(b1-2)Man(a1-6)]Man(b1-4)GlcNAc(b1-4)GlcNAc
How it was run: as §1

[43] = target: Fuc(a1-2)[GalNAc(a1-3)]Gal(b1-4)Glc
How it was run: as §1

[44] = target: Fuc(a1-2)[GalNAc(a1-3)]Gal(b1-4)GlcNAc
How it was run: as §1

[45] = target: Fuc(a1-2)[GalNAc(a1-3)]Gal(b1-4)GlcNAc(b1-2)Man(a1-3)[Fuc(a1-2)[GalNAc(a1-3)]Gal(b1-4)GlcNAc(b1-2)Man(a1-6)]Man(b1-4)GlcNAc(b1-4)GlcNAc
How it was run: as §1

[46] = target: Fuc(a1-2)[GalNAc(a1-3)]Gal(b1-4)GlcNAc(b1-3)Gal(b1-4)GlcNAc
How it was run: as §1

[47] = target: Fuc(a1-2)[GalNAc(a1-3)]Gal(b1-4)GlcNAc(b1-3)Gal(b1-4)GlcNAc(b1-3)Gal(b1-4)GlcNAc
How it was run: as §1

[48] = target: Fuc(a1-2)[GalNAc(a1-3)]Gal(b1-4)[Fuc(a1-3)]GlcNAc
How it was run: as §1

[49] = target: Fuc(a1-2)[GalNAc(a1-4)]Gal(b1-4)GlcNAc
How it was run: as §1

[50] = target: Fuc(a1-2)[GalNAc(b1-3)]Gal
How it was run: as §1

[51] = target: Fuc(a1-3)GlcNAc
How it was run: as §1

[52] = target: Fuc(a1-3)[Gal(b1-4)]Glc6S
How it was run: as §1

[53] = target: Fuc(a1-3)[Gal(b1-4)]GlcNAc
How it was run: as §1

[54] = target: Fuc(a1-3)[Gal(b1-4)]GlcNAc(b1-2)Man(a1-3)[Fuc(a1-3)[Gal(b1-4)]GlcNAc(b1-2)Man(a1-6)]Man(b1-4)GlcNAc(b1-4)GlcNAc
How it was run: as §1

[55] = target: Fuc(a1-3)[Gal(b1-4)]GlcNAc(b1-3)Gal(b1-3)[Fuc(a1-4)]GlcNAc
How it was run: as §1

[56] = target: Fuc(a1-3)[Gal(b1-4)]GlcNAc(b1-3)GalNAc
How it was run: as §1

[57] = target: Fuc(a1-3)[Gal(b1-4)]GlcNAc(b1-4)Gal(b1-4)[Fuc(a1-3)]GlcNAc
How it was run: as §1

[58] = target: Fuc(a1-3)[Gal(b1-4)]GlcNAc(b1-4)Gal(b1-4)[Fuc(a1-3)]GlcNAc(b1-4)Gal(b1-4)[Fuc(a1-3)]GlcNAc
How it was run: as §1

[59] = target: Fuc(a1-3)[Gal(b1-4)]GlcNAc(b1-6)[Gal(b1-3)GlcNAc(b1-3)]Gal(b1-4)Glc
How it was run: as §1

[60] = target: Fuc(a1-3)[Gal(b1-4)]GlcNAc6S
How it was run: as §1

B1: SAG1 (Toxoplasma gondii), P13664 (protein)
chain: MSVSLHHFIISSGFLTSMFPKAVRRAVTAGVFAAPTLMSFLRCGVMASDPPLVANQVVTCPDKKSTAAVILTPTENHFTLKCPKTALTEPPTLAYSPNRQICPAGTTSSCTSKAVTLSSLIPEAEDSWWTGDSASLDTAGIKLTVPIEKFPVTTQTFVVGCIKGDDAQSCMVTVTVQARASSVVNNVARCSYGADSTLGPVKLSAEGPTTMTLVCGKDGVKVPQDNNQYCSGTTLTGCNEKSFKDILPKLTENPWQGNASSDKGATLTIKKEAFPAESKSVIIGCTGGSPEKHHCTVKLEFAGAAGSAKSAAGTASHVSIFAMVIGLIGSIAACVA
[1]
  glycan array binding signal (z-score): -0.054
[2]
  glycan array binding signal (z-score): 0.297
[3]
  glycan array binding signal (z-score): 0.623
[4]
  glycan array binding signal (z-score): 0.327
[5]
  glycan array binding signal (z-score): 1.35
[6]
  glycan array binding signal (z-score): -0.127
[7]
  glycan array binding signal (z-score): -0.274
[8]
  glycan array binding signal (z-score): 0.025
[9]
  glycan array binding signal (z-score): 0.14
[10]
  glycan array binding signal (z-score): -0.311
[11]
  glycan array binding signal (z-score): 0.289
[12]
  glycan array binding signal (z-score): 0.139
[13]
  glycan array binding signal (z-score): 1.06
[14]
  glycan array binding signal (z-score): 0.197
[15]
  glycan array binding signal (z-score): -0.631
[16]
  glycan array binding signal (z-score): -0.249
[17]
  glycan array binding signal (z-score): -0.308
[18]
  glycan array binding signal (z-score): -0.142
[19]
  glycan array binding signal (z-score): -0.074
[20]
  glycan array binding signal (z-score): -0.45
[21]
  glycan array binding signal (z-score): 0.433
[22]
  glycan array binding signal (z-score): -0.392
[23]
  glycan array binding signal (z-score): 0.137
[24]
  glycan array binding signal (z-score): 0.074
[25]
  glycan array binding signal (z-score): 0.574
[26]
  glycan array binding signal (z-score): 0.249
[27]
  glycan array binding signal (z-score): 0.122
[28]
  glycan array binding signal (z-score): -0.355
[29]
  glycan array binding signal (z-score): 1.45
[30]
  glycan array binding signal (z-score): 1.12
[31]
  glycan array binding signal (z-score): -0.837
[32]
  glycan array binding signal (z-score): -0.413
[33]
  glycan array binding signal (z-score): 0.198
[34]
  glycan array binding signal (z-score): -0.586
[35]
  glycan array binding signal (z-score): -0.112
[36]
  glycan array binding signal (z-score): 0.615
[37]
  glycan array binding signal (z-score): 0.614
[38]
  glycan array binding signal (z-score): -0.93
[39]
  glycan array binding signal (z-score): 0.112
[40]
  glycan array binding signal (z-score): -0.186
[41]
  glycan array binding signal (z-score): -0.071
[42]
  glycan array binding signal (z-score): -0.505
[43]
  glycan array binding signal (z-score): 0.144
[44]
  glycan array binding signal (z-score): 0.433
[45]
  glycan array binding signal (z-score): 0.796
[46]
  glycan array binding signal (z-score): 0.883
[47]
  glycan array binding signal (z-score): -0.769
[48]
  glycan array binding signal (z-score): 0.496
[49]
  glycan array binding signal (z-score): -0.526
[50]
  glycan array binding signal (z-score): -0.384
[51]
  glycan array binding signal (z-score): -0.38
[52]
  glycan array binding signal (z-score): -0.272
[53]
  glycan array binding signal (z-score): -0.026
[54]
  glycan array binding signal (z-score): 1.86
[55]
  glycan array binding signal (z-score): -0.232
[56]
  glycan array binding signal (z-score): -0.213
[57]
  glycan array binding signal (z-score): 1.12
[58]
  glycan array binding signal (z-score): -0.064
[59]
  glycan array binding signal (z-score): -0.869
[60]
  glycan array binding signal (z-score): -0.043

Reference: the supplement of paper PMC8728848
